Drawing on article doi:10.1101/611533, this text covers binding for two molecules.

Sequences of proteins named here, by UniProt entry; tags and fusion partners are left off.
UniProt Q9FTA2: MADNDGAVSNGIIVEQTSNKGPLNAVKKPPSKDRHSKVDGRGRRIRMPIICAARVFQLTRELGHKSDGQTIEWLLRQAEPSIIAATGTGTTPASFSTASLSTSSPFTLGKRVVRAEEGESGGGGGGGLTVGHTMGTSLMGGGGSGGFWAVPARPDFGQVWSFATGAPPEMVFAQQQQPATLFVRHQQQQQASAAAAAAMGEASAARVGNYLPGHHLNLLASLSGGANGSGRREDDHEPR
UniProt Q94BT6: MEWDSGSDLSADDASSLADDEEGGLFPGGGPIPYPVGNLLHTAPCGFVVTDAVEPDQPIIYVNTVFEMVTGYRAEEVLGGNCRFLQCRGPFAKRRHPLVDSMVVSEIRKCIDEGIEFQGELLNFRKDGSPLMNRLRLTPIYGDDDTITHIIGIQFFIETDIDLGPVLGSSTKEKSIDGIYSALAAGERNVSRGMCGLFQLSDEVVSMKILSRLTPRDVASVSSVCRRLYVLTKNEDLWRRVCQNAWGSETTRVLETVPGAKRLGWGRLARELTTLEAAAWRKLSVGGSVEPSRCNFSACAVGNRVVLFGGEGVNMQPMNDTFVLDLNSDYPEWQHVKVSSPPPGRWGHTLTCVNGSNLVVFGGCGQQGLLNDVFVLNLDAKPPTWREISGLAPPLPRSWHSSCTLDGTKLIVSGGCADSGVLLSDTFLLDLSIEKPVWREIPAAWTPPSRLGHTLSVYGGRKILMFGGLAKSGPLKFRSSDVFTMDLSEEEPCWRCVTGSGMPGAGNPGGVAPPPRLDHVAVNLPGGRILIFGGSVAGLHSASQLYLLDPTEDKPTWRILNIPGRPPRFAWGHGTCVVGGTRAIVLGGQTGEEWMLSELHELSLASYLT

What all share (test): two-hybrid
Test [1] deals with CCA1 HIKING EXPEDITION (CHE), yeast two-hybrid fusion (Arabidopsis thaliana) (UniProt Q9FTA2).
For test [2], the target named is T1, GIGANTEA (GI), full length, yeast two-hybrid fusion (Arabidopsis thaliana) (UniProt Q9SQI2).
T1 sequence: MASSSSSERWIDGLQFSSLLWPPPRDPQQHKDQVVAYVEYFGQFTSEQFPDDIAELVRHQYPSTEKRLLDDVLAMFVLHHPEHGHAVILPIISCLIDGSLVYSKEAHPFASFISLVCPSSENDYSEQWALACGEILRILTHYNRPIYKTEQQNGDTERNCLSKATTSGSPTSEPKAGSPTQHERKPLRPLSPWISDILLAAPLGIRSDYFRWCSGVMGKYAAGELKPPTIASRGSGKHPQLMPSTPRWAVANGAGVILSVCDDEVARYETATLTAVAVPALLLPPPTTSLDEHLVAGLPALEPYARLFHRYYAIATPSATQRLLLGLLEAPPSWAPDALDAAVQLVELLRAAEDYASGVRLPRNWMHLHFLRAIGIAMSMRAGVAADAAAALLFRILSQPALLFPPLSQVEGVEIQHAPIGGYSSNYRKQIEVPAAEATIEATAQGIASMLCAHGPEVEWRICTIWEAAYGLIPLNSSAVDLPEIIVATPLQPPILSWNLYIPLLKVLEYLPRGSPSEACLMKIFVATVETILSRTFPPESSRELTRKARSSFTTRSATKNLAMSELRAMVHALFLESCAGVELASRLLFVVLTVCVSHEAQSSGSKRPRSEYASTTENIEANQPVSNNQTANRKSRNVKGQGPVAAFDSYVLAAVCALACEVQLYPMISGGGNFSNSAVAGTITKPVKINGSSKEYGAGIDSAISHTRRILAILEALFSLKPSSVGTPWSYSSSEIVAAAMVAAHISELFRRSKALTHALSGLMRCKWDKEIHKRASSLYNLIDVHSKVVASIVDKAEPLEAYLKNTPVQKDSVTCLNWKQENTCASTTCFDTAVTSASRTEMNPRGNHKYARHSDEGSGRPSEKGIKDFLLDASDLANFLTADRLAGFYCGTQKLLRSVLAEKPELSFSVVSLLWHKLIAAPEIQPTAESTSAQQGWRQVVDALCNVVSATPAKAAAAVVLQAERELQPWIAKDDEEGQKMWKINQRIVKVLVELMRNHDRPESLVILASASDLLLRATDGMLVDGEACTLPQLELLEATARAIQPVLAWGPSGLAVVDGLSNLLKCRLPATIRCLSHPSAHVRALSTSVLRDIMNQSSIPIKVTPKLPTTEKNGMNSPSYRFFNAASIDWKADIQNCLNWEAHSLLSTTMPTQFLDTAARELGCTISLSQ

Test [3] addresses T2, PSEUDO-RESPONSE REGULATOR 5 (PRR5), yeast two-hybrid fusion (Arabidopsis thaliana) (UniProt Q6LA42).
T2 sequence: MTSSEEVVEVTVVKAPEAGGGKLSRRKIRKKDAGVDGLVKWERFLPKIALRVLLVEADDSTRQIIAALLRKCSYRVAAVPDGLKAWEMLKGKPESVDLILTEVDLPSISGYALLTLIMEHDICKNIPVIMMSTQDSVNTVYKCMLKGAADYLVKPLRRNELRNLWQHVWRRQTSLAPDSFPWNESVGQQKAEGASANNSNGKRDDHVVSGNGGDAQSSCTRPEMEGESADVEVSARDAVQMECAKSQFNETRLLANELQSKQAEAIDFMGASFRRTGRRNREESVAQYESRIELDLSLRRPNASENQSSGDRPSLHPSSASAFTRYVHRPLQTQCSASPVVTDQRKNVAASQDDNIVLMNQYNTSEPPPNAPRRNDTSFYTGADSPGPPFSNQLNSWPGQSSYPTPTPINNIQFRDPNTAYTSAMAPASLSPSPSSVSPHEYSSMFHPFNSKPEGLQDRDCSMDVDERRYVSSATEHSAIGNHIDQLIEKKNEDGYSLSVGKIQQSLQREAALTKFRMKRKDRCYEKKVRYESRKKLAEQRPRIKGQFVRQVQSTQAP

Test [4] has as its target T3, TIMING OF CAB2 EXPRESSION 1 (TOC1), yeast two-hybrid fusion (Arabidopsis thaliana) (UniProt Q9LKL2).
T3 sequence: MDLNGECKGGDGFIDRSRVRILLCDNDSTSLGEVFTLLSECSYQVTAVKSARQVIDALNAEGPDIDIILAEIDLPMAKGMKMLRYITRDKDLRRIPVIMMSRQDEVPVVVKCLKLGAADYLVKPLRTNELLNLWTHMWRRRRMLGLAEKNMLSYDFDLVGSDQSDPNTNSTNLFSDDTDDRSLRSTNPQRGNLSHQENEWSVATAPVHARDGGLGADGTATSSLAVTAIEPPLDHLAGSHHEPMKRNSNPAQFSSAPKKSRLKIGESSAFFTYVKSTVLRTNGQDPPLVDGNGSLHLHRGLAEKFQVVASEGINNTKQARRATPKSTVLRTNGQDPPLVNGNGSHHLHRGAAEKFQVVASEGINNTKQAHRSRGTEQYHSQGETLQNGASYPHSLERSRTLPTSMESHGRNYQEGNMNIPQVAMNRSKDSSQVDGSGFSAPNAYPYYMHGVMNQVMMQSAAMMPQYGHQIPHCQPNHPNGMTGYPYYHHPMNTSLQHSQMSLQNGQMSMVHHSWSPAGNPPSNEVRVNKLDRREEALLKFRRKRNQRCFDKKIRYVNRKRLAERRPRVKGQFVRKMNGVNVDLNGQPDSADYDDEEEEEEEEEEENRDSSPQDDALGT

The target in test [5] is ZEITLUPE (ZTL), full length, yeast two-hybrid fusion (Arabidopsis thaliana) (UniProt Q94BT6).

No constants are given. Whether binding was seen depends on the method and setting. Some binding calls cover weakened binding; strength is not graded here. Sequences can lack the tags named with a protein.

B1: UBIQUITIN-SPECIFIC PROTEASE 13 (UBP13), full length, yeast two-hybrid fusion (enzyme, UniProt Q84WU2 1-1115)
chain: MTMMTPPPLDQQEDEEMLVPNPDLVEGPQPMEVAQTDPAATAVENPPPEDPPSLKFTWTIPMFTRLNTRKHYSDVFVVGGYKWRILIFPKGNNVDHLSMYLDVADAANLPYGWSRYSQFSLAVVNQVNNRYSIRKETQHQFNARESDWGFTSFMPLSELYEPTRGYLVNDTVLIEAEVAVRKVLDYWSYDSKKETGFVGLKNQGATCYMNSLLQTLYHIPYFRKAVYHMPTTENDAPTASIPLALQSLFYKLQYNDTSVATKELTKSFGWDTYDSFMQHDVQELNRVLCEKLEDKMKGTVVEGTIQKLFEGHHMNYIECINVDYKSTRKESFYDLQLDVKGCKDVYASFDKYVEVERLEGDNKYHAEGHDLQDAKKGVLFIDFPPVLQLQLKRFEYDFMRDTMVKINDRYEFPLQLDLDREDGRYLSPDADKSVRNLYTLHSVLVHSGGVHGGHYYAFIRPTLSDQWYKFDDERVTKEDVKRALEEQYGGEEELPQNNPGFNNPPFKFTKYSNAYMLVYIRESDKDKIICNVDEKDIAEHLRVRLKKEQEEKEDKRKYKAQAHLFTTIKVARDDDITEQIGKNIYFDLVDHEKVRSFRIQKQTPFQQFKEEVAKEFGVPVQLQRFWIWAKRQNHTYRPNRPLSPNEELQTVGQIREASNKANNAELKLFLEIERGPDDLPIPPPEKTSEDILLFFKLYDPENAVLRYVGRLMVKSSSKPMDIVGQLNKMAGFAPDEEIELFEEIKFEPCVMCEQIDKKTSFRLCQIEDGDIICYQKPLSIEESEFRYPDVPSFLEYVQNRELVRFRTLEKPKEDEFTMELSKLHTYDDVVERVAEKLGLDDPSKLRLTSHNCYSQQPKPQPIKYRGVDHLSDMLVHYNQTSDILYYEVLDIPLPELQGLKTLKVAFHSATKDEVIIHNIRLPKQSTVGDVINELKTKVELSHQDAELRLLEVFFHKIYKIFPSTERIENINDQYWTLRAEEIPEEEKNIGPNDRLIHVYHFTKEAGQNQQVQNFGEPFFLVIHEGETLEEIKTRIQKKLHVPDEDFAKWKFASFSMGRPDYLLDTDVVYNRFQRRDVYGAWEQYLGLEHIDNAPKRAYAANQNRHAYEKPVKIYN
In the case of B1, the binding result in test [1] was “no binding”; in test [2] it was “binds”; in test [3], “no binding”; in test [4], “no binding”; in test [5] it was “no binding”.

B2: UBIQUITIN-SPECIFIC PROTEASE 12 (UBP12), full length, yeast two-hybrid fusion (enzyme, UniProt Q9FPT1 1-1116)
chain: MTMMTPPPVDQPEDEEMLVPNSDLVDGPAQPMEVTQPETAASTVENQPAEDPPTLKFTWTIPNFSRQNTRKHYSDVFVVGGYKWRILIFPKGNNVDHLSMYLDVSDAASLPYGWSRYAQFSLAVVNQIHTRYTVRKETQHQFNARESDWGFTSFMPLSELYDPSRGYLVNDTVLVEAEVAVRKVLDYWSYDSKKETGFVGLKNQGATCYMNSLLQTLYHIPYFRKAVYHMPTTENDAPTASIPLALQSLFYKLQYNDTSVATKELTKSFGWDTYDSFMQHDVQELNRVLCEKLEDKMKGTVVEGTIQQLFEGHHMNYIECINVDFKSTRKESFYDLQLDVKGCKDVYASFDKYVEVERLEGDNKYHAEGHGLQDAKKGVLFIDFPPVLQLQLKRFEYDFMRDTMVKINDRYEFPLELDLDREDGKYLSPDADRSVRNLYTLHSVLVHSGGVHGGHYYAFIRPTLSDQWYKFDDERVTKEDLKRALEEQYGGEEELPQTNPGFNNNPPFKFTKYSNAYMLVYIRESDKDKIICNVDEKDIAEHLRVRLKKEQEEKEDKRRYKAQAHLYTIIKVARDEDLKEQIGKDIYFDLVDHDKVRSFRIQKQTPFQQFKEEVAKEFGVPVQLQRFWIWAKRQNHTYRPNRPLTPQEELQPVGQIREASNKANTAELKLFLEVEHLDLRPIPPPEKSKEDILLFFKLYDPEKAVLSYAGRLMVKSSSKPMDITGKLNEMVGFAPDEEIELFEEIKFEPCVMCEHLDKKTSFRLCQIEDGDIICFQKPLVNKEIECLYPAVPSFLEYVQNRQLVRFRALEKPKEDEFVLELSKQHTYDDVVEKVAEKLGLDDPSKLRLTSHNCYSQQPKPQPIKYRGVDHLSDMLVHYNQTSDILYYEVLDIPLPELQGLKTLKVAFHHATKEEVVIHNIRLPKQSTVGDVINELKTKVELSHPDAELRLLEVFYHKIYKIFPSTERIENINDQYWTLRAEEIPEEEKNIGPNDRLILVYHFAKETGQNQQVQNFGEPFFLVIHEGETLEEIKNRIQKKLHVSDEDFAKWKFAFMSMGRPEYLQDTDVVYNRFQRRDVYGAFEQYLGLEHADTTPKRAYAANQNRHAYEKPVKIYN
As for B2, the binding entry in test [1] is on record as “no binding”; in test [2], “binds”; in test [3], “no binding”; in test [4], “no binding”; in test [5], “no binding”.
